Source: the supplement of paper PMC12595434, “Development of retinoid nuclear receptor pathway antagonists through targeting aldehyde dehydrogenase 1A3” (iScience, 2025)
The list shows a part of the results. Single values of this set are uncertain.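 Many melting curves are irregular; where none melted, Tm was taken as 64 °C.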

Chains of the proteins cited; added tags and fusions are not shown. Lines headed by an entry give the natural chain unless they say otherwise; changes in a name come on top.
UniProt P22626: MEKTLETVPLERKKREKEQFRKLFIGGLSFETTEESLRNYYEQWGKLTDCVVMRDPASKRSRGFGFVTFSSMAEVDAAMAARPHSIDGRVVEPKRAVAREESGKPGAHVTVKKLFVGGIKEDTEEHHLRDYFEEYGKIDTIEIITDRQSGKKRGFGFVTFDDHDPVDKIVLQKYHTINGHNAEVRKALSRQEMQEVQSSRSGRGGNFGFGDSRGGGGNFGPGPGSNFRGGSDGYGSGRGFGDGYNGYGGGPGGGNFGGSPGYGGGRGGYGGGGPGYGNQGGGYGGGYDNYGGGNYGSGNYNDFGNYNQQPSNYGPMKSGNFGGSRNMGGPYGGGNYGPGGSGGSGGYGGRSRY
UniProt P24534: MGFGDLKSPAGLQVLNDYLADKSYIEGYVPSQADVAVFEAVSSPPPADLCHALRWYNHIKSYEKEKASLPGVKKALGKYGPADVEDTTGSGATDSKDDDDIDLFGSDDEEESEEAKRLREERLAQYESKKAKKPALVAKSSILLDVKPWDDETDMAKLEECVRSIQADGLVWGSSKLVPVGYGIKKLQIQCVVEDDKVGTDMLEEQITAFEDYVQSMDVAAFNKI
UniProt P26599: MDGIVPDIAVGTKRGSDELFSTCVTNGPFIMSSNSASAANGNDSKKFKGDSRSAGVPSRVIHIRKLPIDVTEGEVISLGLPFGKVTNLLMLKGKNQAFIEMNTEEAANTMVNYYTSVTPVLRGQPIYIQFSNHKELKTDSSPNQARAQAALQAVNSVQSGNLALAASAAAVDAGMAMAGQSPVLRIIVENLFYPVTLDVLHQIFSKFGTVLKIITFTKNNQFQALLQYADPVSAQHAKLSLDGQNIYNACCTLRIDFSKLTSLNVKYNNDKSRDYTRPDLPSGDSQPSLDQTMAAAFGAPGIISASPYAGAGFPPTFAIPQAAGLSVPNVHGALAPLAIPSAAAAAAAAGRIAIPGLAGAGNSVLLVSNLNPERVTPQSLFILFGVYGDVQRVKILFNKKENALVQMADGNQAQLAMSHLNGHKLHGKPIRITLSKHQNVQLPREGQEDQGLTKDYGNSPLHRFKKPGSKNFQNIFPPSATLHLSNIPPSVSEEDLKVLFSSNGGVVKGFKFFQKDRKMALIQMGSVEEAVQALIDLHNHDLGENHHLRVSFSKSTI
UniProt P23458: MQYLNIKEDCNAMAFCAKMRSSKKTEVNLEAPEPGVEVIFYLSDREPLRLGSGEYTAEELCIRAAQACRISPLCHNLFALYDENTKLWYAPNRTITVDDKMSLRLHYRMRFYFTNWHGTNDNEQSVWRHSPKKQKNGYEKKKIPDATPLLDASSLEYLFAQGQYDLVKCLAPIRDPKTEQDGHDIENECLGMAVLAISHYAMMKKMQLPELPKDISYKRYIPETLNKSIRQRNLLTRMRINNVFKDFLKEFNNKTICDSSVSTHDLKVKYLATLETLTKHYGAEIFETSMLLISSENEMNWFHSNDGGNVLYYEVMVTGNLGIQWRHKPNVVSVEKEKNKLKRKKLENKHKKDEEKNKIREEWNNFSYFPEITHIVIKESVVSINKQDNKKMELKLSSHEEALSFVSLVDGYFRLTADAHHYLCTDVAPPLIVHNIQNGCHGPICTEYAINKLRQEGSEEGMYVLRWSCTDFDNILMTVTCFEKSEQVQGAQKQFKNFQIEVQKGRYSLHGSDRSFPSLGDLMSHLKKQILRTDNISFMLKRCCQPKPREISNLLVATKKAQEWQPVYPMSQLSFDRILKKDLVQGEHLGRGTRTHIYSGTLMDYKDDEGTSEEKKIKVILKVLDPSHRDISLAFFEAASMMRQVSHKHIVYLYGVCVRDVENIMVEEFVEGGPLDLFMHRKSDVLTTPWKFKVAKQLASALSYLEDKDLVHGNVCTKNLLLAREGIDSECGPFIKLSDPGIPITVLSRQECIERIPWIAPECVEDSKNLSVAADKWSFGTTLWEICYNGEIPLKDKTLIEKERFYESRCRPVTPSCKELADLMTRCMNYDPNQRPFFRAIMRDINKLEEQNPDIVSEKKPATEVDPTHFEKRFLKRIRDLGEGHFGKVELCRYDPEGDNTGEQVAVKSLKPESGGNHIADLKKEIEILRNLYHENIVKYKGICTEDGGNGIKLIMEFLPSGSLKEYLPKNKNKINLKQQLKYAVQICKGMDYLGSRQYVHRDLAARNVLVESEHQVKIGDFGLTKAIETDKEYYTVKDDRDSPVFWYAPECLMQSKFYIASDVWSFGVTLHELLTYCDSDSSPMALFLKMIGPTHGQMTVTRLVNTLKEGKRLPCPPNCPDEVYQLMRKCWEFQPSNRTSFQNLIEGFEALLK
UniProt P27338, whole entry: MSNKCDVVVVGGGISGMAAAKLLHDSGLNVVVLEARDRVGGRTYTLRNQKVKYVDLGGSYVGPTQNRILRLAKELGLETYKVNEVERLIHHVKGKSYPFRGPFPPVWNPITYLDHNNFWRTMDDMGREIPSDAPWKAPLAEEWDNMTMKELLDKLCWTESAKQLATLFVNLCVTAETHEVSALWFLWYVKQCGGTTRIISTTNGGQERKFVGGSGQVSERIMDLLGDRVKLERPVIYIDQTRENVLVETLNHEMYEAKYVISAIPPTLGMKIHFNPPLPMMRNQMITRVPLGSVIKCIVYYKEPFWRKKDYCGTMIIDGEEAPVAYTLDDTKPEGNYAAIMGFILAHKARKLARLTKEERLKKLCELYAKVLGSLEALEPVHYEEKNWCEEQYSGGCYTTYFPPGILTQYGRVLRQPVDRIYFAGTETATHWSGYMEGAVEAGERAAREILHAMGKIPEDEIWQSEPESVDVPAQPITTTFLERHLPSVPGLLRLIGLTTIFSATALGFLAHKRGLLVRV
UniProt P21333, whole entry: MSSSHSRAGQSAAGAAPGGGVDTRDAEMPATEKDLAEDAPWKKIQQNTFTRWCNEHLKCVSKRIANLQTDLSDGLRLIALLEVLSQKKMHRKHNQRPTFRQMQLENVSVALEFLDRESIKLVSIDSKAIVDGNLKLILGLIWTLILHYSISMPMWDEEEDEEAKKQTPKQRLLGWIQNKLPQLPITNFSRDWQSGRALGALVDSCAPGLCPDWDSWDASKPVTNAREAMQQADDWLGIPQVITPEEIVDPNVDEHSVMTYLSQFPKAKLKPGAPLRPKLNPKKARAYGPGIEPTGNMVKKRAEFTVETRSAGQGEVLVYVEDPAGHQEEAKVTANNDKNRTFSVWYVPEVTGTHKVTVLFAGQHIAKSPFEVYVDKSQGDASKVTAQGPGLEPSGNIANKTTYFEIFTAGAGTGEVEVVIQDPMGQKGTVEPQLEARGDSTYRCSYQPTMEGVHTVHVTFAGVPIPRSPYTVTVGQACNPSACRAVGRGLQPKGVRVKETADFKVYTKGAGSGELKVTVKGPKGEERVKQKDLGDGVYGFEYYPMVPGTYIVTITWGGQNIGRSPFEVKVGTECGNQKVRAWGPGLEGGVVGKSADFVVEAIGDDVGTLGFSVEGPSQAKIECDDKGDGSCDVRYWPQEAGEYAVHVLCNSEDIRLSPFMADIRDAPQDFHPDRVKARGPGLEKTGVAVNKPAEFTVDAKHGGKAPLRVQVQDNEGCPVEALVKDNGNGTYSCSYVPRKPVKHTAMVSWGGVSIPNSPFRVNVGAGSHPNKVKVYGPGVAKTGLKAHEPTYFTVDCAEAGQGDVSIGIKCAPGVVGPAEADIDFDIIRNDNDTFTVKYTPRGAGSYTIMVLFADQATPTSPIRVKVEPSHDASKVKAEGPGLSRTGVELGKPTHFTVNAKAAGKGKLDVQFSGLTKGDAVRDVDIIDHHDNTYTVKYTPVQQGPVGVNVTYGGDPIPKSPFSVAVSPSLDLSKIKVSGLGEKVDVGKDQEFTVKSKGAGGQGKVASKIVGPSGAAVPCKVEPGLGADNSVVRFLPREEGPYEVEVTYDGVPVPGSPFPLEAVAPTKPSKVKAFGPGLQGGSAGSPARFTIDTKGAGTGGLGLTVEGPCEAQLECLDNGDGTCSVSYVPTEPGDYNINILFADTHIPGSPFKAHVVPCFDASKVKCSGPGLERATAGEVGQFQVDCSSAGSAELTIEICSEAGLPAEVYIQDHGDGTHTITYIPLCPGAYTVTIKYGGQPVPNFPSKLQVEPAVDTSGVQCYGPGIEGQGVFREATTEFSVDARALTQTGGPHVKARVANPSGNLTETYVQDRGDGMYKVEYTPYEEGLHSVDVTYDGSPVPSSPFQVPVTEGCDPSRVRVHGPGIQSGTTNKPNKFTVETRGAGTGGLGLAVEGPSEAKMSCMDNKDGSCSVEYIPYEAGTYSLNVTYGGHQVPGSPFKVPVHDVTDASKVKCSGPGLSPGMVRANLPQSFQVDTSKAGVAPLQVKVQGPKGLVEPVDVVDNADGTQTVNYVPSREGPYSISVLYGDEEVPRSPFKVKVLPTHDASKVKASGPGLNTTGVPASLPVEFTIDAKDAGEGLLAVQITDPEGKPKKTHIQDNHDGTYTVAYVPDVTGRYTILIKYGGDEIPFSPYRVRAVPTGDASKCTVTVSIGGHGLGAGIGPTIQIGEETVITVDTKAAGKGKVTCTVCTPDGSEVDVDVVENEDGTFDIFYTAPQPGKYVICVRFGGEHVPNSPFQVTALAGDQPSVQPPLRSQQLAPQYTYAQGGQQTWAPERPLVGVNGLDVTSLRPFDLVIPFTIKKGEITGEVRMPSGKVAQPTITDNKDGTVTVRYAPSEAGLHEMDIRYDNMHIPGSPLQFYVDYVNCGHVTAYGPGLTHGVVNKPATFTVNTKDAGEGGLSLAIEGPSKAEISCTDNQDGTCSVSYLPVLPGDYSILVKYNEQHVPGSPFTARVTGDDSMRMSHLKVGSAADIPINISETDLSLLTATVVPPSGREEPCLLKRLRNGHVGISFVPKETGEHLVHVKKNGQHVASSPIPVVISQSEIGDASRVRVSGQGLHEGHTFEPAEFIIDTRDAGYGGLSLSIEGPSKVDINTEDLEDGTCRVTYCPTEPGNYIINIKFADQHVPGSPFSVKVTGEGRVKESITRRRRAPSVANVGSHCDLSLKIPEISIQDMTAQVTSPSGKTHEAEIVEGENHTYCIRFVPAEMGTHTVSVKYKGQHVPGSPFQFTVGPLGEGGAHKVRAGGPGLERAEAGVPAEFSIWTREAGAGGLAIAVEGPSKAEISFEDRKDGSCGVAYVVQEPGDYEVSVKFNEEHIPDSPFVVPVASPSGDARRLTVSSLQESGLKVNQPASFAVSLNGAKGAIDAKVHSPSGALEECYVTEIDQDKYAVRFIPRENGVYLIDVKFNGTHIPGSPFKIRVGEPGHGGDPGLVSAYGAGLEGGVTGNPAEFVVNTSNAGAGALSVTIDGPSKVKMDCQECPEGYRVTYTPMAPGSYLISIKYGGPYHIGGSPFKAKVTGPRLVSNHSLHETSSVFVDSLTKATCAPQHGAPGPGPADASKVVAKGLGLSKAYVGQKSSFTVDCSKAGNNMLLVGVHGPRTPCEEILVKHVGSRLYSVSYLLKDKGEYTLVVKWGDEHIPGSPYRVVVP
UniProt P35711: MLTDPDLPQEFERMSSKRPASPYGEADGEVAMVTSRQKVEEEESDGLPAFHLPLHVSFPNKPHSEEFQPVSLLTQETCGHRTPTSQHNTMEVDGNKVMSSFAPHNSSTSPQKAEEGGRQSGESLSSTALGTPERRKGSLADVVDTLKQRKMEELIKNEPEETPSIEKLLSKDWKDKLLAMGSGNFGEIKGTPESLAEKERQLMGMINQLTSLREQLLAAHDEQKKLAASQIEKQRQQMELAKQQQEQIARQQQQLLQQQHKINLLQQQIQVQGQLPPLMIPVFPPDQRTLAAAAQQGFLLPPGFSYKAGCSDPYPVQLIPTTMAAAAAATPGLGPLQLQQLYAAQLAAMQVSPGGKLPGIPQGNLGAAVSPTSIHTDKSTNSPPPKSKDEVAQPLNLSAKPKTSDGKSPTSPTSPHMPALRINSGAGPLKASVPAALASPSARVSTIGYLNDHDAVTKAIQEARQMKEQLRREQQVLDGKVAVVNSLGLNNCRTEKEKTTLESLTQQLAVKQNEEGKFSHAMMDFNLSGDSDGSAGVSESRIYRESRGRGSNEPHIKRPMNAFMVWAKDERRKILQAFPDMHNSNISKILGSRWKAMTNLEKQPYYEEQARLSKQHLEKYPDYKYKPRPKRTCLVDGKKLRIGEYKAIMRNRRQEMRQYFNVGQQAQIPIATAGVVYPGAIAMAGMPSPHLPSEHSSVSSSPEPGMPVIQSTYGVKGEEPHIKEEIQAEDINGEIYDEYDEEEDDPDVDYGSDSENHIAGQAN
UniProt P32119: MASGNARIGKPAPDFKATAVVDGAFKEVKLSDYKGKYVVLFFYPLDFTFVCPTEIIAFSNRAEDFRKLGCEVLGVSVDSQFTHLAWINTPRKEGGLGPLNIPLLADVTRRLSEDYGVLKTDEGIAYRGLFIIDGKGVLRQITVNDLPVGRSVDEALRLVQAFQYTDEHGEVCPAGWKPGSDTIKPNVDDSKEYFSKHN
UniProt P26885: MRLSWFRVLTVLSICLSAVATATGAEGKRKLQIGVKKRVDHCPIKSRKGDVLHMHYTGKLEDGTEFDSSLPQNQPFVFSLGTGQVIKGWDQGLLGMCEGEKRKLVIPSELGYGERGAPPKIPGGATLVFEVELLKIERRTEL

The targets below were run with CCc1cnccc1C(=O)Nc1cc2c(cc1F)NC(=O)CC2 (assay: melting temperature shift (DMSO Tm minus MBE1-treated Tm) in cellular thermal proteome profiling; higher = less thermal stabilization by MBE1 (negative = stabilized by MBE1)). Conditions: A375; MBE1 concentration: 100 nM.
HNRNPA2B1 (UniProt P22626) showed a melting temperature shift of 0.165 °C.
Work on SFPQ (UniProt P23246) yielded a melting temperature shift of -0.677 °C.
ABCC1 (UniProt P33527) showed a melting temperature shift of -0.637 °C.
In the case of SCP2 (UniProt P22307), the melting temperature shift is reported as -2.22 °C.
Target PCMT1 (UniProt P22061) has a melting temperature shift of -0.127 °C.
In the case of EEF1B2 (UniProt P24534), the melting temperature shift is reported as 0.69 °C.
For GSTM3 (UniProt P21266), the melting temperature shift was -0.819 °C.
Target MCC (UniProt P23508) has a melting temperature shift of -0.397 °C.
PTBP1 (UniProt P26599) gave a melting temperature shift of 0 °C.
In the case of GRK5 (UniProt P34947), the melting temperature shift is reported as 1.76 °C.
JAK1 (UniProt P23458) gave a melting temperature shift of 0 °C.
UniProt P28482 showed a melting temperature shift of -0.434 °C.
Target UniProt P20648 has a melting temperature shift of -0.95 °C.
In the case of UniProt P27338, the melting temperature shift is reported as -5.16 °C.
For ITGA6 (UniProt P23229), the melting temperature shift was -1.07 °C.
Work on FLNA (UniProt P21333) yielded a melting temperature shift of 0.458 °C.
UniProt P28370 showed a melting temperature shift of -0.243 °C.
With DDX6 (UniProt P26196) the melting temperature shift was -0.165 °C.
Target AGL (UniProt P35573) has a melting temperature shift of 0.598 °C.
ME2 (UniProt P23368) was tested, and the melting temperature shift was 0.421 °C.
For NF1 (UniProt P21359), the melting temperature shift was 0.0183 °C.
Target RFC1 (UniProt P35251) has a melting temperature shift of -0.634 °C.
With UniProt P35711 the melting temperature shift was 0.885 °C.
In the case of WEE1 (UniProt P30291), the melting temperature shift is reported as -0.47 °C.
UniProt P27987 showed a melting temperature shift of -1.01 °C.
PRDX2 (UniProt P32119) showed a melting temperature shift of -0.598 °C.
AKT2 (UniProt P31751) gave a melting temperature shift of 0.47 °C.
With UniProt P23443 the melting temperature shift was -0.275 °C.
RDX (UniProt P35241) showed a melting temperature shift of -0.672 °C.
For CTNNB1 (UniProt P35222), the melting temperature shift was -1.24 °C.
UniProt P24468 was tested, and the melting temperature shift was 0.714 °C.
With POLR2B (UniProt P30876) the melting temperature shift was 0.679 °C.
With FUS (UniProt P35637) the melting temperature shift was -4.1 °C.
Target PRKACB (UniProt P22694) has a melting temperature shift of -0.256 °C.
With FKBP2 (UniProt P26885) the melting temperature shift was -1.29 °C.
Target UQCRC1 (UniProt P31930) has a melting temperature shift of -0.44 °C.
POLD1 (UniProt P28340) gave a melting temperature shift of -0.635 °C.
TGFBR1 (UniProt P36897) was tested, and the melting temperature shift was 1.9 °C.

Same assay, conditions: A375; MBE1 concentration: 1 uM
HNRNPA2B1 (UniProt P22626) gave a melting temperature shift of -0.458 °C.
Work on SFPQ (UniProt P23246) yielded a melting temperature shift of -0.494 °C.
ABCC1 (UniProt P33527) was tested, and the melting temperature shift was 0.134 °C.
With SCP2 (UniProt P22307) the melting temperature shift was -2.25 °C.
With PCMT1 (UniProt P22061) the melting temperature shift was 0.409 °C.
In the case of EEF1B2 (UniProt P24534), the melting temperature shift is reported as 0.342 °C.
In the case of GSTM3 (UniProt P21266), the melting temperature shift is reported as -0.795 °C.
MCC (UniProt P23508) showed a melting temperature shift of -0.0183 °C.
Target PTBP1 (UniProt P26599) has a melting temperature shift of -0.0733 °C.
Work on GRK5 (UniProt P34947) yielded a melting temperature shift of 0.623 °C.
With JAK1 (UniProt P23458) the melting temperature shift was -0.476 °C.
With UniProt P28482 the melting temperature shift was 0.0794 °C.
UniProt P20648 gave a melting temperature shift of -0.739 °C.
UniProt P27338 was tested, and the melting temperature shift was -2.5 °C.
Work on ITGA6 (UniProt P23229) yielded a melting temperature shift of 0.51 °C.
With FLNA (UniProt P21333) the melting temperature shift was -0.153 °C.
Target UniProt P28370 has a melting temperature shift of -0.0513 °C.
Work on DDX6 (UniProt P26196) yielded a melting temperature shift of 0.678 °C.
For AGL (UniProt P35573), the melting temperature shift was 0.427 °C.
ME2 (UniProt P23368) showed a melting temperature shift of -0.183 °C.
Target NF1 (UniProt P21359) has a melting temperature shift of -0.403 °C.
RFC1 (UniProt P35251) showed a melting temperature shift of -0.474 °C.
Target UniProt P35711 has a melting temperature shift of -0.751 °C.
Work on WEE1 (UniProt P30291) yielded a melting temperature shift of -2.5 °C.
Target UniProt P27987 has a melting temperature shift of -0.77 °C.
In the case of PRDX2 (UniProt P32119), the melting temperature shift is reported as -0.293 °C.
AKT2 (UniProt P31751) showed a melting temperature shift of 0.446 °C.
In the case of UniProt P23443, the melting temperature shift is reported as 0.318 °C.
Work on RDX (UniProt P35241) yielded a melting temperature shift of -0.611 °C.
In the case of CTNNB1 (UniProt P35222), the melting temperature shift is reported as 0.134 °C.
Work on UniProt P24468 yielded a melting temperature shift of 1.15 °C.
POLR2B (UniProt P30876) gave a melting temperature shift of 0.104 °C.
FUS (UniProt P35637) showed a melting temperature shift of -4.06 °C.
For PRKACB (UniProt P22694), the melting temperature shift was 0.867 °C.
With FKBP2 (UniProt P26885) the melting temperature shift was 1.04 °C.
In the case of UQCRC1 (UniProt P31930), the melting temperature shift is reported as -0.202 °C.
POLD1 (UniProt P28340) was tested, and the melting temperature shift was -0.819 °C.
For TGFBR1 (UniProt P36897), the melting temperature shift was 0.372 °C.
